Data on three substances can be found in paper PMC5426686.

Amino acid sequences for entries named in this document (tags omitted).
UniProt Q7TPK6: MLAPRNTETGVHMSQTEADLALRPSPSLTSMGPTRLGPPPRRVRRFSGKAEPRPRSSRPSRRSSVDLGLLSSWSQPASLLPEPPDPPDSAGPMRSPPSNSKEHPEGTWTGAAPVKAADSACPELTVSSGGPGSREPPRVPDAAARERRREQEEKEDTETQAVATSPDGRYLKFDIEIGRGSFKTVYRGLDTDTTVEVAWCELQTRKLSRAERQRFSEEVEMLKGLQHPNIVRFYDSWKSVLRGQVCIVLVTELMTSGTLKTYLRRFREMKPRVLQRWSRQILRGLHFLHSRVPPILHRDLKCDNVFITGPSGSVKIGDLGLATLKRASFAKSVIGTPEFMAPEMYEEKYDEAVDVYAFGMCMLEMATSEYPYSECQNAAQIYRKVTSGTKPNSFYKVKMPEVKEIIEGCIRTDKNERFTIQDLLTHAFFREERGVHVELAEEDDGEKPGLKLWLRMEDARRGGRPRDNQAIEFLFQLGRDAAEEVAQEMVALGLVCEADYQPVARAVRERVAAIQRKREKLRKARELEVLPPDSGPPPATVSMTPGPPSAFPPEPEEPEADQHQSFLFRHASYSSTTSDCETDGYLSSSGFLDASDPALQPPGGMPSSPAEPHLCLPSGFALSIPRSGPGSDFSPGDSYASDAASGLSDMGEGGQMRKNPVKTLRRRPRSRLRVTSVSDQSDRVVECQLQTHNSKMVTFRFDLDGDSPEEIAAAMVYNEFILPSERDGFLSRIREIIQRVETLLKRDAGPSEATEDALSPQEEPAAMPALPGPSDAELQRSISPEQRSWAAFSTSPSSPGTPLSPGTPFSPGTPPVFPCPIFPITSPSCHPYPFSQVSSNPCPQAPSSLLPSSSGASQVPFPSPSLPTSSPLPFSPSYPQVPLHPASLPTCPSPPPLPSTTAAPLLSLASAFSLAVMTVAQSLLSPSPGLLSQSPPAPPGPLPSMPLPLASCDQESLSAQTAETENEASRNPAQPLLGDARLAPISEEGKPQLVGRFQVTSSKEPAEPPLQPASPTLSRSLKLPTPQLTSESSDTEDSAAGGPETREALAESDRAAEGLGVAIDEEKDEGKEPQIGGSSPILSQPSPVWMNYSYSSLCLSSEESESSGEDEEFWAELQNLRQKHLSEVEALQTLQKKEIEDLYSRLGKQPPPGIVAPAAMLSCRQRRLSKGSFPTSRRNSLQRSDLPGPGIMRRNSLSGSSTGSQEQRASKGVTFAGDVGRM
UniProt A0ACM8Q5W3: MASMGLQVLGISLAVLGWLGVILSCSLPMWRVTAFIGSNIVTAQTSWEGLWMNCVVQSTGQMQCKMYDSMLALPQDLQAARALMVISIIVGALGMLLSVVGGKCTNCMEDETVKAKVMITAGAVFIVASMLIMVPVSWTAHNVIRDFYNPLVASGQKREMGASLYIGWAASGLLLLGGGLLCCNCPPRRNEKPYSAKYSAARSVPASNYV
UniProt Q06226: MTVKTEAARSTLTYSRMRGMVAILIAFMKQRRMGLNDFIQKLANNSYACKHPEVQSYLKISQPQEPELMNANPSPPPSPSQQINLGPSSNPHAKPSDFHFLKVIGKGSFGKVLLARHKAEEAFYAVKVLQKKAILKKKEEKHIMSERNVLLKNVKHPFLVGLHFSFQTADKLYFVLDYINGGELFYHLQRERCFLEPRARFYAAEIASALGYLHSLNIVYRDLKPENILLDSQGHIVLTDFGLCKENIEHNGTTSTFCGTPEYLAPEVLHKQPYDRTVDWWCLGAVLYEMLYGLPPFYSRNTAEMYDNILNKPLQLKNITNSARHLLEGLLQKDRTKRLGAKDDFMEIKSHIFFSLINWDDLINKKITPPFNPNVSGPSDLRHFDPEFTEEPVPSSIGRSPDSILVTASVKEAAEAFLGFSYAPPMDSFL

No constants are given. Whether binding was seen depends on the method and setting. Binding seen in cells or lysates may run through a third protein. Some entries that bind do so weakly or less than the wild type.

Assay [1] deals with claudin-4 (rat (endogenous in distal tubules of Wistar rats)). Kind of assay: co-IP; endogenous proteins in extracts (1 mg, RIPA buffer) of distal tubules isolated from rats of four groups (control, diabetic by streptozotocin, diabetic + spironolactone, spironolactone); immunoprecipitating antibody (anti-cldn-4, anti-cldn-8 or anti-WNK4) bound to protein G-agarose, overnight at 4°C, washed thrice with RIPA buffer; immunoblot; irrelevant antibody as negative control.

Assay [2] has as its target with-no-lysine kinase 4 (rat (endogenous in distal tubules of Wistar rats)) (UniProt Q7TPK6). The description is as above.

On to “with-no-lysine kinase 4 (from UniProt Q7TPK6 1-1222) (enzyme)”, for which, in assay [1], the binding result is recorded as “binds”.

Consider “claudin-4 (from UniProt A0ACM8Q5W3 1-210)”, for which the binding result in assay [2] is “binds”.

Take “serum and glucocorticoid-induced kinase 1 (from UniProt Q06226 1-430) (enzyme)”: in assay [2], the binding result is listed as “binds”.
